Out of some 330,000 compounds screened, about 7,700 (2.3%) were called active. The inconclusive results got no clear call from the source; some entries with a clear call stand among them for comparison. The call rests on the fitted dose curve; in most records, active means well fitted inhibition curve with a large enough effect; inconclusive means small, poorly fitted or top-dose-only effect, or effect the other way; inactive means flat fitted curve, though single readings scatter. Where the call is inconclusive, the potency comes from a doubtful curve fit.
assay: qHTS screen for small molecules that inhibit ELG1-dependent DNA repair in human embryonic kidney (HEK293T) cells expressing luciferase-tagged ELG1; conditions: HEK293T ELG1-luciferase reporter, luminescence, 16 h, DNA damage induced by 5-fluorouridine; series mostly up to 46.1 µM; further: nearly all actives have a fitted effect of over 55% in size
Procedure, shortened: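 In this reporter screen, reduction of luminescence relative to DMSO vehicle indicated activity. Compounds and 5-fluorouridine were added together to 2,000 cells per well, incubated for 16 hr at 37 °C, then developed with ONE-Glo.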
Potency means the concentration at half of the fitted maximal effect.

Row | Structure (SMILES) | Potency
1 | CC(=O)N1CCC(C(=O)N2CCN(S(=O)(=O)c3cccs3)CC2)CC1 | inactive
2 | COCCN(CCOC)c1nc(S(=O)(=O)c2ccc(C)cc2)c(Cl)s1 | inconclusive: 32.6 µM [inhibitor, partial curve, poor fit]
3 | Cc1ccc2c(c1)sc(-c1ccc(N(C)C)cc1)[n+]2C | inconclusive: 14.6 µM [activator, partial curve]
4 | NS(=O)(=O)c1ccc(N/N=C/c2ccc(C(=O)O)cc2)c([N+](=O)[O-])c1 | inactive
5 | CCOc1ccc(-c2nc(CCl)cs2)cc1OC | inconclusive: 20.6 µM [activator, single point]
6 | O=C(NCCc1ccc2c(c1)OCCO2)c1ccc([N+](=O)[O-])cc1Cl | inconclusive: 29.1 µM [inhibitor, single point]
7 | O=C(NCCc1ccccc1)c1c[nH]c2c(F)cccc2c1=O | inconclusive: 16.4 µM [activator, partial curve]
8 | CCCc1cc(-c2n[nH]c(=S)n2CC)cs1 | inconclusive: 9.2 µM [activator, partial curve, poor fit]
9 | COC(=O)c1ccc(C(=O)NC2CCSc3ccccc32)cc1 (stereo not drawn) | inconclusive: 29.1 µM [inhibitor, single point]
10 | Cc1ccc(OCc2cc(C(=O)NC3CCCCC3)no2)cn1 | inconclusive: 1.46 µM [inhibitor, partial curve]
11 | CCN1CCN(c2ccc(NC(=O)c3ccco3)cc2)CC1 | inconclusive: 16.4 µM [activator, partial curve]
12 | CN(C)S(=O)(=O)c1cccc(NC(=S)Nc2cc(Cl)cc(Cl)c2)c1 | inconclusive: 29.1 µM [inhibitor, single point]
13 | Cc1ccc(C(=O)OCC(=O)NCc2cc(C)c(O)c(C)c2)cc1S(=O)(=O)N1CCCCC1 | active: 7.3 µM
14 | Cc1ccc2nc(SCc3nnc(-c4cccs4)o3)[nH]c2c1 | inactive
15 | CCCCNC(=S)N(Cc1c(C)noc1C)c1ccccc1 | inconclusive: 9.2 µM [activator, partial curve, poor fit]
16 | CC(C)n1c(-c2ccco2)csc1=Nc1cccnc1 | inconclusive: 29.1 µM [inhibitor, single point]
17 | O=C(CSc1nnc(-c2ccco2)n1Cc1ccccc1)NCc1ccccc1 | active: 20.6 µM
18 | CSc1nnc2ccc(-c3ccc(C)cc3)nn12 | inconclusive: 20.6 µM [activator, partial curve]
19 | CC(C#N)Sc1nnc(-c2ccccc2F)n1C1CC1 (stereo not drawn) | inactive
20 | Cc1ccc(Nc2nc3ccccc3n3cnnc23)c(Cl)c1 | inactive
21 | COc1cc(OC)c(-c2nc3ccccc3s2)cc1OC | inconclusive: 23.1 µM [inhibitor, single point]
22 | CCOC(=O)c1cccc(NC(=O)CN2CCN(c3ccc(OC)cc3)CC2)c1 | inconclusive: 20.6 µM [inhibitor, single point]

11 compounds from above, sorted by length of the SMILES, largest number first.
Row | Structure (SMILES) | Potency
4 | NS(=O)(=O)c1ccc(N/N=C/c2ccc(C(=O)O)cc2)c([N+](=O)[O-])c1 | inactive
12 | CN(C)S(=O)(=O)c1cccc(NC(=S)Nc2cc(Cl)cc(Cl)c2)c1 | inconclusive: 29.1 µM [inhibitor, single point]
2 | COCCN(CCOC)c1nc(S(=O)(=O)c2ccc(C)cc2)c(Cl)s1 | inconclusive: 32.6 µM [inhibitor, partial curve, poor fit]
17 | O=C(CSc1nnc(-c2ccco2)n1Cc1ccccc1)NCc1ccccc1 | active: 20.6 µM
3 | Cc1ccc2c(c1)sc(-c1ccc(N(C)C)cc1)[n+]2C | inconclusive: 14.6 µM [activator, partial curve]
10 | Cc1ccc(OCc2cc(C(=O)NC3CCCCC3)no2)cn1 | inconclusive: 1.46 µM [inhibitor, partial curve]
20 | Cc1ccc(Nc2nc3ccccc3n3cnnc23)c(Cl)c1 | inactive
15 | CCCCNC(=S)N(Cc1c(C)noc1C)c1ccccc1 | inconclusive: 9.2 µM [activator, partial curve, poor fit]
16 | CC(C)n1c(-c2ccco2)csc1=Nc1cccnc1 | inconclusive: 29.1 µM [inhibitor, single point]
8 | CCCc1cc(-c2n[nH]c(=S)n2CC)cs1 | inconclusive: 9.2 µM [activator, partial curve, poor fit]
5 | CCOc1ccc(-c2nc(CCl)cs2)cc1OC | inconclusive: 20.6 µM [activator, single point]

(more compounds)

Row | Structure (SMILES) | Potency
23 | CN(CC(=O)N1CCN(c2ccccc2)CC1)S(=O)(=O)c1cccs1 | inconclusive: 29.1 µM [activator, single point]
24 | Cc1ccc(S(=O)(=O)CCC(=O)OCC(=O)NCCc2ccc(F)cc2)cc1 | inactive
25 | CCn1ncc([N+](=O)[O-])c1C(=O)Nc1ccc(C(=O)N2CCCCC2)cc1 | inconclusive: 7.31 µM [inhibitor, partial curve, poor fit]
26 | CCOc1ncccc1C(=O)Nc1ccccc1N1CCOCC1 | inconclusive: 32.6 µM [inhibitor, single point]
27 | O=C(c1ccc(CS(=O)c2ccccc2Cl)o1)N1CCN(c2ccccn2)CC1 (stereo not drawn) | inconclusive: 5.8 µM [inhibitor, full curve]
28 | O=C(NC1CCCCC1)C(c1ccc2ncccc2c1)N(Cc1ccc2c(c1)OCO2)C(=O)c1cccs1 (stereo not drawn) | inconclusive: 16.4 µM [inhibitor, partial curve]
29 | Cc1ccc2c(CN3CCN(Cc4ccccc4)CC3)cc(=O)oc2c1 | inconclusive: 32.6 µM [inhibitor, single point]
30 | CCOC(=O)c1c(CSc2nc(C)cc(C)c2C#N)n(C)c2cc(Br)c(OC(C)=O)cc12 | inconclusive: 3.66 µM [inhibitor, full curve]
31 | COc1ccc(/C=N\NC(=O)c2ccc(-c3ccccc3)cc2)cc1COC(C)=O | inactive
32 | CCOc1ccccc1N1CCN(C(=O)Nc2ccc(Cl)c(Cl)c2)CC1 | inconclusive: 29.1 µM [inhibitor, single point]
33 | COc1cccc(NC2c3ccccc3C(=O)N2Cc2ccco2)c1 (stereo not drawn) | inactive
34 | COc1ccc(NC(=O)COC(=O)CCCOc2ccc(Cl)cc2Cl)cc1Cl | inconclusive: 16.4 µM [activator, partial curve, poor fit]
35 | COc1ccccc1CCNC(=O)C(=O)NCC1OCCN1S(=O)(=O)c1ccc(Br)cc1 (stereo not drawn) | inconclusive: 25.9 µM [inhibitor, single point]
36 | CCOc1ccccc1NC(=O)COc1coc(CN2CCCc3ccccc32)cc1=O | inconclusive: 20.6 µM [inhibitor, single point]
37 | CSCC[C@H](NC(=O)C1CCN(S(=O)(=O)c2ccc(C)cc2C)CC1)c1nc2ccccc2[nH]1 | inconclusive: 18.3 µM [inhibitor, single point]
38 | Cn1c(=O)c2c(nc(CN3CCC(C(N)=O)CC3)n2Cc2c(Cl)cccc2Cl)n(C)c1=O | inconclusive: 32.6 µM [inhibitor, single point]
39 | COC(=O)C(Cc1ccc(OC(=O)c2ccc(C(F)(F)F)cc2)cc1)N1Cc2ccccc2C1=O (stereo not drawn) | inconclusive: 18.4 µM [activator, partial curve]
40 | CCCn1c(SCC(=O)Nc2cccc(S(=O)(=O)N(C)C)c2)nc2ccccc2c1=O | active: 23.1 µM
41 | O=C(NCc1cccnc1)c1cc(Sc2ccccc2Cl)nc2ccccc12 | inconclusive: 25.9 µM [inhibitor, single point]
42 | O=C(C[n+]1cccc(C(=O)Nc2ccccc2)c1)c1ccc([N+](=O)[O-])cc1 | inactive
43 | O=C(N/N=C/c1ccc(O)c(O)c1)NC12CC3CC(CC(C3)C1)C2 | inactive

Reference: PubChem BioAssay AID504467 (National Center for Advancing Translational Sciences (NCATS), 2011)
